Three substances from paper PMC11417359 can be followed below.

The chains behind the UniProt entries cited, without tags or fusion partners.
UniProt Q3TKT4: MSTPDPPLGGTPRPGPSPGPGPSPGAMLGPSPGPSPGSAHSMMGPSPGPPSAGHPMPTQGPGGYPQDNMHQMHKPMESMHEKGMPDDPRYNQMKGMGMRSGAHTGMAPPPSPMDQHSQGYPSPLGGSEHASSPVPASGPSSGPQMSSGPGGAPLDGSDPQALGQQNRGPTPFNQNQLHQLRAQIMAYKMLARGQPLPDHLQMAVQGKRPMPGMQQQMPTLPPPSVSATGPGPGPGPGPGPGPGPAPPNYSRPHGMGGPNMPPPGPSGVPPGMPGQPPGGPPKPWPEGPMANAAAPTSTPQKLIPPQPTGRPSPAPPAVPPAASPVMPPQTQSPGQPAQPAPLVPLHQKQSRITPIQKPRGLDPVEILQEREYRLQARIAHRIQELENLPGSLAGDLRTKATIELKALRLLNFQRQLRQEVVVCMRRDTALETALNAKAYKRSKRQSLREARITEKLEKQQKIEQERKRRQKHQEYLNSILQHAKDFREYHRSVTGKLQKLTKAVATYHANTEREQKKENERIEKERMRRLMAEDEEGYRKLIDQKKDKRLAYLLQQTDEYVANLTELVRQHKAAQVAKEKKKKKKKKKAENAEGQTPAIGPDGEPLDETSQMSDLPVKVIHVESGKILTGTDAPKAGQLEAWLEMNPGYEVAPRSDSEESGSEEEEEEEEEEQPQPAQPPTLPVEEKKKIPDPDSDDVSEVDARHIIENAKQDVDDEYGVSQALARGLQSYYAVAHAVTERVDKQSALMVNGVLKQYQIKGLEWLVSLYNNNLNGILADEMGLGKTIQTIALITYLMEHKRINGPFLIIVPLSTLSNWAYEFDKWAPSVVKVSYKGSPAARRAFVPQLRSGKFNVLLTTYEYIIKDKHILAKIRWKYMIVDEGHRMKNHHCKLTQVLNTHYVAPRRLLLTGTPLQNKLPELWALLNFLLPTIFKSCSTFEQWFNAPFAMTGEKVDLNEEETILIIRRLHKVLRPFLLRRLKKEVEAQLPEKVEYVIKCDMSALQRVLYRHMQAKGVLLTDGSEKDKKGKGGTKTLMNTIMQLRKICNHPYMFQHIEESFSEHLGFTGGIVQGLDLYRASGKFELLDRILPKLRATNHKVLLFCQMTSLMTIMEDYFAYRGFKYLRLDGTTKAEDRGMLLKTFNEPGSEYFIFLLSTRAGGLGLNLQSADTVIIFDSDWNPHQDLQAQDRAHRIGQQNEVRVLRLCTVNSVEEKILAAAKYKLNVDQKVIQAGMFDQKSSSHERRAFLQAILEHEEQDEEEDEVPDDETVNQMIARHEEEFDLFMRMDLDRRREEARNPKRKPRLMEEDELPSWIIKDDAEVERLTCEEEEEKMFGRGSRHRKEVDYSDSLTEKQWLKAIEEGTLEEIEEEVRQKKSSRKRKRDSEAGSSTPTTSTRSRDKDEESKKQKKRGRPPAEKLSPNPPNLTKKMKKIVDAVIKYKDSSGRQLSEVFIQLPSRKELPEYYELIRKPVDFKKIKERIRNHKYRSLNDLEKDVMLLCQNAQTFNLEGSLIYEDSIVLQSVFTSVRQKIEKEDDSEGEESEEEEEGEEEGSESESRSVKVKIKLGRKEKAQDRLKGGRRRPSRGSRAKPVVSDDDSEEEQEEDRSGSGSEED
UniProt O54941: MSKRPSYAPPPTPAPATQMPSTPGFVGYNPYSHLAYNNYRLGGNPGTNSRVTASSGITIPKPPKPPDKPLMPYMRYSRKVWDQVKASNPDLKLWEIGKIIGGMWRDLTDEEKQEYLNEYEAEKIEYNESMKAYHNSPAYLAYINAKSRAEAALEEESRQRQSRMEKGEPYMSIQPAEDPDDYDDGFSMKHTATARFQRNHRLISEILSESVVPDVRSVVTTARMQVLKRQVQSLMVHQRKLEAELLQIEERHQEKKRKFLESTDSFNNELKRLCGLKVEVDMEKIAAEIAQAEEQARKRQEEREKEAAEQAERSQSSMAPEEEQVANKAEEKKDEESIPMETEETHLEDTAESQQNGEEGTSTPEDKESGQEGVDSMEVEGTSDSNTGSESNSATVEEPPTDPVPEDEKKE
UniProt Q91ZW3: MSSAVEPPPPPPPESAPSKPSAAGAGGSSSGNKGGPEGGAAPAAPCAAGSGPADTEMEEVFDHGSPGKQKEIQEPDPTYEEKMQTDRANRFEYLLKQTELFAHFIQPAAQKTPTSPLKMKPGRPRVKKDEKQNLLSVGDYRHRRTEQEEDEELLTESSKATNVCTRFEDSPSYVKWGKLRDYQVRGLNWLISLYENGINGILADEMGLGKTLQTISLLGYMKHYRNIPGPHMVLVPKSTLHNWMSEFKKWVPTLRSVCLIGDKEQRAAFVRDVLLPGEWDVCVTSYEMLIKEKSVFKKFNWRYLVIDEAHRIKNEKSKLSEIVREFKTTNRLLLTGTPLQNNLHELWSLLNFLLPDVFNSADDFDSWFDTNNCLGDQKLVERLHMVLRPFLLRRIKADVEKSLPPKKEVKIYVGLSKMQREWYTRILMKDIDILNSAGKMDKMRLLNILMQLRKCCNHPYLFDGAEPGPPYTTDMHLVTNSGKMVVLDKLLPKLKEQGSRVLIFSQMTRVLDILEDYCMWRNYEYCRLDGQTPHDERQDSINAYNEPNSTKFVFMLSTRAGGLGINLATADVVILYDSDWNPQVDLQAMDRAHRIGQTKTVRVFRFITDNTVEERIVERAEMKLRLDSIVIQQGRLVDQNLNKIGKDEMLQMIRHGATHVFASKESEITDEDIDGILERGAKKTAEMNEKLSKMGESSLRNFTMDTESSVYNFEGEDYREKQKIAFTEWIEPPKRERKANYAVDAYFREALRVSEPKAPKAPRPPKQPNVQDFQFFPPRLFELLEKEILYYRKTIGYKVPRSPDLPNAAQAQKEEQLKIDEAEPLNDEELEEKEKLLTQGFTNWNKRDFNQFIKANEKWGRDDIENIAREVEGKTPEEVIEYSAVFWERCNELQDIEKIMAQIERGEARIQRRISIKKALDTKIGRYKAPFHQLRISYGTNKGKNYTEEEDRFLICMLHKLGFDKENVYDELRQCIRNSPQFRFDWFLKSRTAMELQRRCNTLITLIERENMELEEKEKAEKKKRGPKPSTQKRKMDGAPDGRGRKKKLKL

These are yes or no findings as the source states them, for the method shown. Binding seen in cells or lysates may run through a third protein. Some entries that bind do so weakly or less than the wild type.

This assay addresses T1, HSF5 (fifth member of the heat shock factor family) (mouse (endogenous in testis)) (UniProt Q5ND04).
T1 sequence: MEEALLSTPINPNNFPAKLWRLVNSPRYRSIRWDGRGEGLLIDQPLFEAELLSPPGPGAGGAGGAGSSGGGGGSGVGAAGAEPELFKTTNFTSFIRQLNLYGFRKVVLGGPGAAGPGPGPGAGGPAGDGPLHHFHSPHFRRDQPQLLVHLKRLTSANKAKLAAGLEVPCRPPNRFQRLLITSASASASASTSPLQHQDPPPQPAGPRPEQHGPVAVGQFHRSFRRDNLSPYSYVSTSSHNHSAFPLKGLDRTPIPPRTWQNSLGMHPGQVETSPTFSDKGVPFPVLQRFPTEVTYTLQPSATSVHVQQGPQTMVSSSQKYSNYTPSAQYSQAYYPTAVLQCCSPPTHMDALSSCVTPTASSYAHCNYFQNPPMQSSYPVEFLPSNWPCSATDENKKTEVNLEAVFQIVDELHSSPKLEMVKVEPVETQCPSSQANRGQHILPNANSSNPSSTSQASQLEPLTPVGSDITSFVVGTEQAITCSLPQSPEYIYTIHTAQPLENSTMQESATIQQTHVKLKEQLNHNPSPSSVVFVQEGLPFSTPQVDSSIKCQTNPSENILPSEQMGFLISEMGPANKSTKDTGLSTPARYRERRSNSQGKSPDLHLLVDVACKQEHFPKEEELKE
The experiment in a line: co-IP; co-IP from WT mouse testis lysate, detected by Western blot (Figure 7I); GAPDH as loading control. In general terms: Immunoblotting shows a protein as a band on a membrane.
As to SMARCA4 (from UniProt Q3TKT4 1-1613), the binding result is “binds”. To SMARCE1 (from UniProt O54941 1-411) belongs “binds”. Take SMARCA5 (from UniProt Q91ZW3 1-1051): the binding result was “binds”.
